Like-named read-outs stand apart in the source and are kept apart here. These are yes or no findings as the source states them, for the method shown. In cells and extracts the contact can be indirect. Some binding calls cover weakened binding; strength is not graded here. For some of these results: Tags and fused reporters may be left off the sequences shown.
T1: PAR4^Q242A-YFP (human) (UniProt Q96RI0)
T1 sequence: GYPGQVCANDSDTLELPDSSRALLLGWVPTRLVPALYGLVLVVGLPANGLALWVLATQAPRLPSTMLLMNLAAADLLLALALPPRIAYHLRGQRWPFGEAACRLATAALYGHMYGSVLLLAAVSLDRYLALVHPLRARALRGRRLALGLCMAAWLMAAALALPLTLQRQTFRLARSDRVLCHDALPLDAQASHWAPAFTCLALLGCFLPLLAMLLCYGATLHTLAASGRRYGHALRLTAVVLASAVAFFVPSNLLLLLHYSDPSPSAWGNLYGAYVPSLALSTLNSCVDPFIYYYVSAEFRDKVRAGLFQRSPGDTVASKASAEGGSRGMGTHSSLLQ

The chains behind the UniProt entries cited, without tags or fusion partners. Residues count along the entry.
UniProt P55085, residues 37-397: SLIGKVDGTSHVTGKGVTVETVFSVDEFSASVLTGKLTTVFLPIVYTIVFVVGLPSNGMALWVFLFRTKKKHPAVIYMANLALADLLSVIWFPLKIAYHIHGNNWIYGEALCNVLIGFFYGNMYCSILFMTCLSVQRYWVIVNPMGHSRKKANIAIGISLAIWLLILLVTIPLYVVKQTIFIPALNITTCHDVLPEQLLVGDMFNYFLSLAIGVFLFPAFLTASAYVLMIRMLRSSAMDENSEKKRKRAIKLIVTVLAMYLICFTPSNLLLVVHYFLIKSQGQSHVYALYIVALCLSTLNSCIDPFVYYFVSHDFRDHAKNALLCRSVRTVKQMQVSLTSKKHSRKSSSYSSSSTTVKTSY

T2: PAR4^H229A-YFP (human) (UniProt Q96RI0)
T2 sequence: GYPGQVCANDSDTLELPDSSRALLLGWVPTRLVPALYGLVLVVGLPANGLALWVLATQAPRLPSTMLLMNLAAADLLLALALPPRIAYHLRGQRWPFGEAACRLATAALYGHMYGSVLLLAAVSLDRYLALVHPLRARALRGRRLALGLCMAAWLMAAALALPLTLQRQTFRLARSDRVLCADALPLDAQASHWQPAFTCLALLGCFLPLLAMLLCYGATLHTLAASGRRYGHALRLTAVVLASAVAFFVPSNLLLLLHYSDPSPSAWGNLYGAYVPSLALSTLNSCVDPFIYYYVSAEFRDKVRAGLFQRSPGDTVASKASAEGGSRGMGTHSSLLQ

T3: Proteinase Activated Receptor-4 (PAR4)-YFP, wild type (human) (UniProt Q96RI0)
T3 sequence: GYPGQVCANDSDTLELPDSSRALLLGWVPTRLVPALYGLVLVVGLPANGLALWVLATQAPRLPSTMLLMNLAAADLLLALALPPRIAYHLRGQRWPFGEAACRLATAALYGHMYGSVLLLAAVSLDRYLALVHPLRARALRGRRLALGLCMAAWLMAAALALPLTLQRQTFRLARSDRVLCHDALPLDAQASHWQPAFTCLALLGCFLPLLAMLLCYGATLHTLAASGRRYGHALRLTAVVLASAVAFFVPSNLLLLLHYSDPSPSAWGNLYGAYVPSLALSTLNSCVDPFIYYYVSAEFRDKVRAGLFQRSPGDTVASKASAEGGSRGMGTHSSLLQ


Columns and labels:
Assay in all cases: FRET or BRET
[1] = target: T1, PAR4^Q242A-YFP (human)
[2] = target: PAR2-YFP (UniProt P55085)
[3] = target: T2, PAR4^H229A-YFP (human)
[4] = target: T1, PAR4^Q242A-YFP (human); remark: listed apart in the source
[5] = target: T2, PAR4^H229A-YFP (human); remark: listed apart in the source
[6] = target: T3, Proteinase Activated Receptor-4 (PAR4)-YFP, wild type (human)

Row | binding [1] | binding [2] | binding [3] | binding [4] | binding [5] | binding [6] | Molecule
1 | binds | binds | binds | binds | binds |  | β-arrestin-2-renilla luciferase (from UniProt P32121 1-409)
2 | binds |  | binds | binds | binds | binds | β-arrestin-1-renilla luciferase (natural protein, UniProt P49407 1-418, looked up) MGDKGTRVFKKASPNGKLTVYLGKRDFVDHIDLVDPVDGVVLVDPEYLKERRVYVTLTCAFRYGREDLDVLGLTFRKDLFVANVQSFPPAPEDKKPLTRLQERLIKKLGEHAYPFTFEIPPNLPCSVTLQPGPEDTGKACGVDYEVKAFCAENLEEKIHKRNSVRLVIRKVQYAPERPGPQPTAETTRQFLMSDKPLHLEASLDKEIYYHGEPISVNVHVTNNTNKTVKKIKISVRQYADICLFNTAQYKCPVAMEEADDTVAPSSTFCKVYTLTPFLANNREKRGLALDGKLKHEDTNLASSTLLREGANREILGIIVSYKVKVKLVVSRGGLLGDLASSDVAVELPFTLMHPKPKEEPPHREVPENETPVDTNLIELDTNDDDIVFEDFARQRLKGMKDDKEEEEDGTGSPQLNNR
